No constants are given. Whether binding was seen depends on the method and setting. In cells and extracts the contact can be indirect. Some entries that bind do so weakly or less than the wild type.
What was measured:
[1] = target: Halo-SMAD4_320-552 (human) (UniProt Q13485); assay: pull-down
[2] = target: Halo-SMAD4_140-552 (human) (UniProt Q13485); assay: pull-down
Halo-SMAD4_1-140 (human) = Halo-SMAD4_1-140 (human) (UniProt Q13485); assay: pull-down
Halo-SMAD4_1-320 (human) = Halo-SMAD4_1-320 (human) (UniProt Q13485); assay: pull-down
BRK-Y447F (human) = BRK-Y447F (human) (UniProt Q13882); assay: co-IP
GFP-SMAD4 (human) = GFP-SMAD4 (human) (UniProt Q13485); assay: co-IP
GFP-SMAD3 = GFP-SMAD3 (UniProt P84022); assay: co-IP
GFP-SMAD2 = GFP-SMAD2 (UniProt Q15796); assay: co-IP

The chains behind the UniProt entries cited, without tags or fusion partners. Where a name states a change or a piece, a line headed by the entry shows the natural chain unless it says otherwise. Residues count along the entry.
UniProt Q13485: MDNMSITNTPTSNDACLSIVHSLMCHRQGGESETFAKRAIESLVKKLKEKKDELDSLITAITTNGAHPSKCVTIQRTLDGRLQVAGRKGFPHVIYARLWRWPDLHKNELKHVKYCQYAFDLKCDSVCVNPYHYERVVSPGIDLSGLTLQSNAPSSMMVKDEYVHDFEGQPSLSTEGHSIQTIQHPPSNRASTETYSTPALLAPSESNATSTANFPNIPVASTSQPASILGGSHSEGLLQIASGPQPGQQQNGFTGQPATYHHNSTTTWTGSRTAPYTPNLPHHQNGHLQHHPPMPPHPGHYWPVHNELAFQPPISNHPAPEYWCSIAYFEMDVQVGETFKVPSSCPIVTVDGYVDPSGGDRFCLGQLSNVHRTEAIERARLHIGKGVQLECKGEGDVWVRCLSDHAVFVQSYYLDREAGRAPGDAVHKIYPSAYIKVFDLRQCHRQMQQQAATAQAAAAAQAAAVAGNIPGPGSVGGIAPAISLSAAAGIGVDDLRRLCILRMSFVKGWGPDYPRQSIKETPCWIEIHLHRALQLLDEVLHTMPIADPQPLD
Halo-SMAD4_1-320: residues 1-320 of Q13485
Halo-SMAD4_1-140: residues 1-140 of Q13485
Halo-SMAD4_140-552: residues 140-552 of Q13485
Halo-SMAD4_320-552: residues 320-552 of Q13485
UniProt P84022: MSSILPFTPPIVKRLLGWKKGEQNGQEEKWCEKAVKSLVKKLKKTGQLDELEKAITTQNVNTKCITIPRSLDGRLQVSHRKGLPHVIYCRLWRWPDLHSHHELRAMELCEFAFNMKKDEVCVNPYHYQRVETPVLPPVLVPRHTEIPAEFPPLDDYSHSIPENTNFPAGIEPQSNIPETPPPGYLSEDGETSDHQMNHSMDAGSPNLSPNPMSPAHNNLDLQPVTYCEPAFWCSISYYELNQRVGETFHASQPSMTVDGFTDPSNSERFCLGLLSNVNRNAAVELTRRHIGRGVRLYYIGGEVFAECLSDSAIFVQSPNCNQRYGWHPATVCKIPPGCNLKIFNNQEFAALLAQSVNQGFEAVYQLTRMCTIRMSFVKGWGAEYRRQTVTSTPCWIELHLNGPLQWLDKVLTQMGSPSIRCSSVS
UniProt Q15796: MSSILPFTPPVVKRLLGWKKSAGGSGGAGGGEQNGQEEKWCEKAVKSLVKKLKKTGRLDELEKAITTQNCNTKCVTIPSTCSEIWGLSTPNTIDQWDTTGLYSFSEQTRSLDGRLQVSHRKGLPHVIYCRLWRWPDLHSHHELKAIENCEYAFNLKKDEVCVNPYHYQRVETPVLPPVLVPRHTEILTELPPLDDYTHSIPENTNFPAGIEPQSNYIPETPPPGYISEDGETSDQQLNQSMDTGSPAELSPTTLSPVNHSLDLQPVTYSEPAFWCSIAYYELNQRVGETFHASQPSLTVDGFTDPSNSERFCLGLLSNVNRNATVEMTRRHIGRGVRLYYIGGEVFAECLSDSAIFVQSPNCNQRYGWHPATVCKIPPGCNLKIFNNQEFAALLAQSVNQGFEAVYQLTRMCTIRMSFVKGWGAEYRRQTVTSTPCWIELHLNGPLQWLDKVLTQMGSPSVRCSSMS

| Substance | binding (BRK-Y447F (human)) | binding (GFP-SMAD4 (human)) | other results |
| --- | --- | --- | --- |
| SNAP-Flag-BRK-YF (from UniProt Q13882 1-451) (enzyme) | – | – | binding [1]: binds; binding [2]: binds; binding (Halo-SMAD4_1-140 (human)): binds; binding (Halo-SMAD4_1-320 (human)): binds |
| GFP-SMAD2 (from UniProt Q15796 1-467) | binds | – | – |
| BRK-W44A (from UniProt Q13882 1-451) (enzyme) | – | binds | – |
| BRK-Y447F (from UniProt Q13882 1-451) (enzyme) | – | binds | binding (GFP-SMAD3): binds; binding (GFP-SMAD2): binds |

More lines, main results first:

| binding (BRK-Y447F (human)) | binding (GFP-SMAD4 (human)) | Substance | other results |
| --- | --- | --- | --- |
| binds | – | GFP-SMAD3 (from UniProt P84022 1-425) | – |
| binds | – | GFP-SMAD4 (from UniProt Q13485 1-552) | – |
| – | binds | BRK-WT (from UniProt Q13882 1-451) (enzyme) | – |
